# Laboratory results published in PubChem BioAssay AID445 (National Center for Advancing Translational Sciences (NCATS), 2006).
# Some of the results follow. Further columns of the screen follow, without active or inactive calls. Compounds called inactive in the main read-out are mostly missing here. Words in brackets tell the shape of the fitted curve; partial curves, single points and poor fits give uncertain potencies.
# Experiment: IkB Signaling
# Details: ABC-DLBCL IkBa-CBG/CBR dual luciferase ratio (green luciferase fused to IkBa over red control in OCI-Ly3 lymphoma cells), 4 h; measured here: control luc red channel unless noted
# Summary of the method: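 In this assay, an IκBα–CBG68 fusion accumulates when IKK-driven degradation is blocked; native CBR normalizes for cell number. OCI-Ly3 cells were treated 4 h with compound and doxycycline, then green and red light read after Chroma-Glo addition.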
row,Compound,AC50
1,Cc1ccc2c(c1)nnn2C1CCN(S(=O)(=O)c2ccc(C(=O)N3CC(C)CC(C)C3)cc2)CC1 (configuration not stated),"12.6 µM [falling, partial curve]"
2,Nc1nnc(SCC(=O)Nc2ccc(Cl)cc2)s1,"0.794 µM [rising, single point]"
3,Cc1cc(Cl)ccc1NC(=O)c1cccc(NC(=O)N2CCSc3ncccc32)c1,"12.6 µM [falling, partial curve]"
4,O=C(CSC1=Nc2ccccc2C2=NC(CCC(=O)NC3CCCCC3)C(=O)N12)Nc1cccc(C(F)(F)F)c1 (configuration not stated),"12.6 µM [falling, partial curve]"
5,CCn1c(COc2ccccc2)nnc1SCC(=O)CC(=O)Nc1ccccc1OC,"12.6 µM [falling, partial curve]"
6,CCOC(=O)CCc1c(C)nc2cc(-c3cc(OC)cc(OC)c3)[nH]n2c1=O,"3.16 µM [falling, partial curve]"
7,O=C(O)C1CCN(C(=O)COc2ccc3c4c(c(=O)oc3c2)CCC4)CC1,"12.6 µM [falling, partial curve]"
8,COc1cc(NC(=O)c2cc(-c3cccc(OC)c3)n[nH]2)cc(OC)c1,"0.398 µM [falling, partial curve]"
9,Cc1nc2ccc(S(=O)(=O)N(CC(=O)Nc3ccc(F)cc3)Cc3ccccc3)cc2s1,"12.6 µM [falling, partial curve]"
10,c1ccc(-c2nc(-c3ccco3)cs2)nc1,"2.51 µM [rising, partial curve]"
11,CC1CCc2c(sc(NC(=O)CCCOc3ccccc3)c2C(N)=O)C1 (configuration not stated),"20 µM [falling, partial curve]"
12,COC(=O)CCn1nnc(-c2ccc(C(C)C)cc2)n1,"0.794 µM [falling, full curve]"
13,Cc1cc(NC(=O)CCCC(=O)N(CC(=O)NC2CCCCC2)c2ccccc2)no1,"25.1 µM [falling, partial curve]"
14,CCOC(=O)c1cnc2c(Cl)cc(Cl)cc2c1Nc1ccccc1OC,"20 µM [falling, partial curve]"
15,COc1ccc(-c2cn3c(C)c(C(=O)Nc4cc(C)cc(C)c4)sc3n2)cc1,"6.31 µM [falling, full curve]"
16,COC(=O)c1ccc(Cn2nnc3c(=O)[nH]c(C4CCCN(S(=O)(=O)c5ccccc5Cl)C4)nc32)cc1 (configuration not stated),"39.8 µM [falling, single point]"
17,CCCSc1ncc(Cl)c(C(=O)N(Cc2ccc(Cl)cc2)Cc2ccco2)n1,"12.6 µM [falling, partial curve]"
18,CCCOC(=O)c1ccc(Oc2cn[nH]c2-c2ccc(OC)cc2O)cc1,"25.1 µM [falling, partial curve]"
19,Cc1ccccc1OCC(=O)N1CCC(c2nc3ccccc3s2)CC1,"3.16 µM [rising, single point]"
20,Cc1ccc(NC(=O)Cn2nc(N3CCN(c4ccccc4)CC3)ccc2=O)cc1F,"25.1 µM [falling, partial curve]"
21,CCC1CCCCN1S(=O)(=O)c1cc2c3c(c1)CC(=O)N3CCC2 (configuration not stated),"5.01 µM [falling, single point]"

# Of the compounds above, 2 contain two or more sulfur atoms.
row,Compound,AC50
2,Nc1nnc(SCC(=O)Nc2ccc(Cl)cc2)s1,"0.794 µM [rising, single point]"
9,Cc1nc2ccc(S(=O)(=O)N(CC(=O)Nc3ccc(F)cc3)Cc3ccccc3)cc2s1,"12.6 µM [falling, partial curve]"

# As entered above:
# AC50 with `Cc1ccccc1OCC(=O)N1CCC(c2nc3ccccc3s2)CC1` reads 3.16 µM [rising, single point]
# AC50 with `CCCSc1ncc(Cl)c(C(=O)N(Cc2ccc(Cl)cc2)Cc2ccco2)n1` reads 12.6 µM [falling, partial curve]

# Further compounds follow:

row,Compound,AC50
1,COc1ccc(S(=O)(=O)N2Cc3ccccc3CC2C(=O)Nc2ccc(C)cc2C)cc1OC (configuration not stated),"20 µM [falling, partial curve]"
2,COc1ccc(CNC(=O)c2cc3c(C)nc4ccccc4c3o2)c(OC)c1,"39.8 µM [rising, single point] [measured here: IkB-luc green channel]"
3,CCOC(=O)c1c(C)oc2ncnc(Nc3cc(C)cc(C)c3)c12,"3.98 µM [rising, single point]"
4,CCC1=C(c2ccc(C)cc2)S(=O)(=O)N=C1N1CCC(C(=O)NCc2ccc(N(C)C)cc2)CC1,"15.8 µM [falling, partial curve]"
5,COc1ccc(CNC(=O)c2cnn3c(C)c(Cc4c(F)cccc4Cl)c(C)nc23)cc1,"39.8 µM [falling, single point]"
6,Cc1cccc(N2CCN(C(=O)c3cnc(N4CCCC4)nc3C)CC2)c1C,"31.6 µM [falling, single point]"
7,CCCCOc1ccc(C(=O)NCc2nnnn2-c2ccc(C)c(C)c2)cc1,"25.1 µM [falling, partial curve]"
8,COc1ccccc1NC(=O)CC1C(=O)NCCN1C(=O)Nc1ccc(Cl)c(Cl)c1 (configuration not stated),"31.6 µM [falling, single point]"
9,COC(=O)c1c(NC(=O)/C(C#N)=C/c2ccccc2)sc2c1C(C(=O)OC)CC2 (configuration not stated),"0.398 µM [falling, partial curve]"
10,CCOc1ccccc1CNC(=O)c1oc2c(c1C)-c1nn(Cc3cccc(Cl)c3)cc1CC2,"20 µM [falling, partial curve]"
11,Cc1cccc(C(=O)NCc2nc3ccccc3n2Cc2ccccc2Cl)c1,"25.1 µM [falling, partial curve]"
12,COc1cccc(OCc2nnc(SCC(=O)NCc3ccco3)n2CCc2ccccc2)c1,"12.6 µM [falling, partial curve]"
13,Cc1ccc(NC(=O)C2CCCN2S(=O)(=O)c2cccc3cccnc23)c(C)c1 (configuration not stated),"2 µM [rising, partial curve]"
14,O=C(Nc1cccc(OCc2cc(=O)n3ccccc3n2)c1)Nc1cccc(C(F)(F)F)c1,"0.316 µM [falling, full curve]"
15,COc1cccc(NC(=O)Cn2c(=O)n(Cc3ccc(C(=O)NCc4ccc(C)cc4)cc3)c(=O)c3ccccc32)c1,"0.316 µM [falling, single point]"
16,CCOC(=O)c1c(C)n(-c2ccccc2)c2ccc(OC(=O)c3c(F)cccc3F)cc12,"10 µM [rising, partial curve]"
17,CCOc1ccc(Cn2c(CNS(=O)(=O)c3ccc(C(C)(C)C)cc3)nc3cccnc32)cc1,"39.8 µM [falling, single point]"
18,CCOc1ccc(CNC(=O)C2=Cc3cccc(OC)c3OC2)cc1,"12.6 µM [falling, partial curve]"
19,O=C(Cc1nc2ccccc2s1)c1ccc(O)cc1O,"20 µM [falling, partial curve]"
20,COc1ccc(OC)c(CC2C(=O)Nc3ccc(Br)cc32)c1 (configuration not stated),"31.6 µM [falling, partial curve]"
21,Cc1cc(F)ccc1S(=O)(=O)Nc1cc2c(C(=O)O)c(C)oc2c2ccccc12,"5.01 µM [falling, full curve]"

row,Compound,AC50
1,Cc1cc(N2CCN(c3cc(Cl)ccc3C)CC2)n2nc(-c3ccccc3)nc2n1,"31.6 µM [falling, partial curve]"
2,O=C(NCc1ccco1)c1cnn2c1NC(c1ccc(Br)cc1)CC2C(F)(F)F (configuration not stated),"10 µM [falling, partial curve, poor fit]"
3,N#Cc1ccc(NC(=O)C2Cc3ccccc3CN2S(=O)(=O)c2ccc(F)cc2)cc1 (configuration not stated),"20 µM [falling, partial curve]"
4,O=C(Nc1ccccc1C(=O)OCc1cc(=O)n2ccsc2n1)c1ccccc1Cl,"12.6 µM [falling, partial curve]"
5,CCC(=O)N1CCc2cc(Br)cc(S(=O)(=O)N3CCN(c4cc(C)ccc4C)CC3)c21,"5.01 µM [rising, full curve, poor fit]"
6,COc1cc(-c2cc3n(C)c(C)c(CCC(=O)NC4CCCCC4)c(=O)n3n2)cc(OC)c1OC,"15.8 µM [falling, partial curve]"
7,COc1ccc(Oc2nc3c(c(=O)n(C)c(=O)n3C)n2Cc2ccc(Cl)cc2Cl)cc1,"0.631 µM [falling, full curve, poor fit]"
8,CCOC12NC(=O)CC(=O)N1C(c1ccccc1)=CS2 (configuration not stated),"12.6 µM [falling, partial curve]"
9,OCCN1CCN(c2ncnc3c2sc2nc(N4CCOCC4)c4c(c23)CCC4)CC1,"12.6 µM [falling, partial curve]"
10,CCOC(=O)c1cnc2ccc(OC)cc2c1Nc1cccc(C(C)=O)c1,"31.6 µM [falling, single point]"
11,CC1(C)C(=O)Nc2ccccc2N1C(=O)COc1ccc(S(=O)(=O)N2CCOCC2)cc1Cl,"25.1 µM [falling, partial curve]"
12,O=C(CN1C(=O)C2(SCC(=O)N2c2ccc(F)c(F)c2)c2ccccc21)Nc1cccc(Cl)c1 (configuration not stated),"20 µM [falling, partial curve]"
13,Cc1ccccc1OCC(=O)Nc1ccc2nc(SCC(=O)N3CCOCC3)sc2c1,"5.01 µM [falling, partial curve]"
14,Cc1ccc2[nH]c(=O)c(CN(CCc3ccccc3)C(c3nnnn3Cc3ccco3)C(C)C)cc2c1 (configuration not stated),"7.94 µM [falling, partial curve]"
15,CCOc1cc(CNc2ccc(O)cc2)cc(Cl)c1OCc1ccccc1,"20 µM [falling, partial curve]"
16,Cn1nc(-c2ccccc2F)c2cc(C(=O)N3CCN(c4ccccc4F)CC3)sc21,"10 µM [falling, partial curve]"
17,CCOC(=O)c1c(C)[nH]c(C)c1S(=O)(=O)N1CCC(C(=O)NCc2ccc(OC)cc2)CC1,"5.01 µM [rising, partial curve]"
18,COC(=O)c1ccc2c(=O)n(CCCCCC(=O)N3CCN(c4cccc(C)c4C)CC3)c(=O)[nH]c2c1,"10 µM [falling, partial curve]"
19,COCCCNc1nc2c(-c3cccc(Br)c3)nnn2c2ccccc12,"0.794 µM [falling, full curve]"
20,O=C(O)CCC(=O)Nc1ccc2ccccc2c1,"0.794 µM [falling, full curve]"
